# Assay results from PubChem BioAssay AID504467 (National Center for Advancing Translational Sciences (NCATS), 2011).
# The whole screen tested about 330,000 compounds, of which about 7,700 (2.3%) were called active. Inconclusive results, whose numbers are uncertain, are shown with a selection of clear calls. Calls come from the whole dose curve; as a rule, active = well fitted inhibition curve with a large enough effect; inconclusive = small, poorly fitted or top-dose-only effect, or effect the other way; inactive = flat fitted curve, though single readings scatter. A potency beside an inconclusive call is a rough fit, not a confirmed value.
# Experiment: qHTS screen for small molecules that inhibit ELG1-dependent DNA repair in human embryonic kidney (HEK293T) cells expressing luciferase-tagged ELG1; note: nearly all actives have a fitted effect of over 55% in size
# Conditions: HEK293T ELG1-luciferase reporter, luminescence, 16 h, DNA damage induced by 5-fluorouridine; series mostly up to 46.1 µM
# Method in brief: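 HEK293T cells expressing luciferase-tagged ELG1 (2,000/well) received 5-Fluorouridine plus compound or DMSO for 16 hr at 37 °C. Luciferase was read by ONE-Glo luminescence after 30 min at room temperature.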
# Potency is the fitted concentration of half-maximal effect.
row,Structure (SMILES),Potency
1,O=C(c1cc(C2CC2)nn1-c1ccccc1)N1CCN(c2ccccc2O)CC1,inactive
2,O=C(Cc1cccs1)NCCS(=O)(=O)N1CCN(c2ccccc2F)CC1,inactive
3,Cc1ccc(O)c(/C=N/NC(=O)C2=NNC(c3ccccc3)(c3ccccc3)C2)c1,"inconclusive: 1.16 µM [inhibitor, partial curve]"
4,COC(=O)CN1C(=O)C(C)(C)Oc2ccc(C(=O)Nc3cccc(OC)c3)cc21,"inconclusive: 29.1 µM [inhibitor, single point]"
5,O=C(COC(=O)c1ccc(Br)o1)Nc1ncc([N+](=O)[O-])s1,"inconclusive: 20.6 µM [activator, partial curve]"
6,Cc1cc(C(=O)CSc2nnc(-c3ccco3)o2)c(C)n1-c1ccc2c(c1)OCCO2,"inconclusive: 20.6 µM [inhibitor, partial curve]"
7,COc1ccc(/C=N/Nc2nc(NCc3ccco3)nc(Nc3ccc(OC)cc3)n2)cc1,"inconclusive: 29.1 µM [inhibitor, single point]"
8,COc1ccc(NC(=O)c2c(NC(=O)CNCc3ccco3)sc3c2CCC3)cc1,"inconclusive: 29.1 µM [inhibitor, single point]"
9,Cc1ccc(C(=O)Oc2cc(N)n(S(=O)(=O)c3ccc(C)cc3)n2)cc1,inactive
10,C=CCNc1nc(Cl)nc(Nc2ccc(OCC)cc2)n1,inactive
11,COc1ccccc1NC(=O)c1ccc(Cl)c(S(=O)(=O)N2CCOCC2)c1,"inconclusive: 23.1 µM [inhibitor, single point]"
12,O=C(COC(=O)c1cccs1)Nc1ccc(Cl)cn1,"inconclusive: 16.4 µM [activator, partial curve, poor fit]"
13,O=C(Cc1ccc(Cl)cc1)c1c[nH]c(C(=O)NCCCn2ccnc2)c1,inactive
14,CCOc1ccccc1NC(=O)CSc1nnc(-c2cccnc2)o1,inactive
15,COc1ccccc1N(C)S(=O)(=O)c1ccc(Cl)c(C(=O)Nc2ccncc2)c1,"inconclusive: 3.55 µM [inhibitor, partial curve, poor fit]"
16,CCOC(=O)c1[nH]c(C)c(C(=O)OCC)c1C,"inconclusive: 18.4 µM [activator, single point]"
17,CCc1ccc(C(=O)CSc2nnc(C3CC3)n2C2CC2)cc1,"inconclusive: 18.3 µM [activator, partial curve]"
18,CCN(Cc1ccncc1)C(=O)c1cc(COc2ccc(C)c(C)c2)on1,inactive
19,CCCN1CCN(CCCNC(=O)CCCn2nc(C)c3sc4ccccc4c3c2=O)CC1,inactive
20,CC(=O)Nc1cccc(C(=O)OCC(=O)NNC(=O)c2ccc([N+](=O)[O-])cc2)c1,inactive
21,Cc1ccc(NC(=O)CSc2nnc3c(n2)[nH]c2ccccc23)cc1,inactive
22,CCCCOC(=O)Nc1nnc(SCCOc2ccc(C)cc2)s1,"inconclusive: 16.4 µM [activator, partial curve, poor fit]"
23,CCN1CCN(CCCNC(=O)c2ccc(NC(=O)C3=CSCCO3)cc2)CC1,"inconclusive: 18.3 µM [activator, partial curve]"

# Reprinted at random: two records from the list.
row,Structure (SMILES),Potency
8,COc1ccc(NC(=O)c2c(NC(=O)CNCc3ccco3)sc3c2CCC3)cc1,"inconclusive: 29.1 µM [inhibitor, single point]"
4,COC(=O)CN1C(=O)C(C)(C)Oc2ccc(C(=O)Nc3cccc(OC)c3)cc21,"inconclusive: 29.1 µM [inhibitor, single point]"

# (list continues)

row,Structure (SMILES),Potency
1,COc1cc(OC)cc(C(=O)NCC(=O)OCC(=O)Nc2ncc(Cl)cc2Cl)c1,"inconclusive: 18.3 µM [activator, partial curve, poor fit]"
2,CCN(C(=O)CSc1nc2ccccc2n1C)C1CCS(=O)(=O)C1 (centres undefined),"inconclusive: 15.8 µM [activator, single point]"
3,O=C(NCC1CCN(S(=O)(=O)c2ccccc2)CC1)Nc1ccc(F)cc1,inactive
4,Cc1cc(OCc2ccc(C(=O)n3cccn3)o2)ccc1Cl,"inconclusive: 13 µM [activator, partial curve]"
5,COc1ccc2ccccc2c1CN(C)Cc1ccccc1,inactive
6,Cn1c(SCC(=O)NC2CC2)nnc1C1CC1,"inconclusive: 32.6 µM [activator, partial curve, poor fit]"
7,Cc1csc(NC(=O)[C@@H]2CCCN2C(=O)c2cccs2)n1,inactive
8,COc1ccc(C(=O)/C=C/c2ccccc2C(F)(F)F)cc1,"inconclusive: 23.1 µM [activator, single point]"
9,CCOC(=O)C(=O)C1=C(N2CCOCC2)/C(=C\c2ccc(F)cc2)CC1,"inconclusive: 18.4 µM [activator, single point]"
10,COc1cccc(/C=N/NC(=O)CCc2c(C)n[nH]c2C)c1O,"inconclusive: 20.6 µM [inhibitor, single point]"
11,COCCNC(=S)N1CCC(NC(=O)Nc2ccc(C)cc2)CC1,"inconclusive: 29.1 µM [inhibitor, single point]"
12,CCc1ccc(OCC(=O)N/N=C/c2ccc(OS(=O)(=O)c3ccc(C)cc3)c(OC)c2)cc1,inactive
13,COC(=O)c1ccc(NC(=O)c2ccc(NC(=O)c3ccco3)cc2)cc1,"inconclusive: 32.6 µM [inhibitor, partial curve, poor fit]"
14,Cc1ccc2ncnc(Oc3ncccc3NC(=O)C(C)(C)C)c2c1,inactive
15,Cc1ccc(C(=O)OC/C(O)=C(\C#N)c2nc3ccccc3[nH]2)cc1S(=O)(=O)N1CCOCC1,"inconclusive: 29.1 µM [inhibitor, single point]"
16,CCC(C)N(C(=O)COC(=O)c1ccccc1SCC(=O)N1CCCC1)C1CCS(=O)(=O)C1 (centres undefined),"inconclusive: 16.4 µM [activator, partial curve, poor fit]"
17,O=[N+]([O-])c1cccc(NC(=S)N2CCc3ccccc3C2)c1,"inconclusive: 29.1 µM [inhibitor, single point]"
18,O=S(=O)(Cc1noc(-c2ccc(Cl)cc2)n1)Cc1ccco1,"inconclusive: 13 µM [activator, partial curve]"
19,Cn1cnc(S(=O)(=O)N2CCN(c3ccc(F)cc3)CC2)c1,inactive
20,CCN1CCc2nc3sc(C(=O)Nc4cccnc4Cl)c(N)c3cc2C1,inactive
21,Cn1cccc1/C=C1\SC(=S)N(Nc2ccccc2)C1=O,"inconclusive: 29.1 µM [activator, single point]"
22,CS(=O)(=O)N(CC(=O)Nc1ccc2c(c1)OCCO2)Cc1ccc(Cl)cc1,"inconclusive: 20.6 µM [activator, single point]"
23,COc1ccccc1C(=O)Nc1nc(N)n(-c2ccccc2)n1,"inconclusive: 29.1 µM [activator, partial curve, poor fit]"

row,Structure (SMILES),Potency
1,CC(=O)c1nnn(-c2ccc([N+](=O)[O-])cc2)c1C,inactive
2,CC(=O)Nc1ccc(NC(=O)c2ccccc2CCc2ccccc2)cc1,inactive
3,COc1ccccc1Oc1ccc(S(=O)(=O)NCc2ccccn2)cc1,"inconclusive: 8.2 µM [inhibitor, partial curve, poor fit]"
4,O=C(CNC(=O)c1ccco1)Nc1ccc(F)cc1,"inconclusive: 23.1 µM [activator, single point]"
5,O=C(CN1CCCc2ccccc21)Nc1cc(S(=O)(=O)N2CCCC2)ccc1Cl,inactive
6,O=C(CSc1nccn1-c1ccccc1)c1ccc(Cl)cc1,"inconclusive: 29.1 µM [activator, single point]"
7,Clc1cccc(Nc2nc(-c3ccncc3)nc3ccccc23)c1,active: 2.59 µM
8,COCCC(=O)N1CCC(Oc2ccc(C(=O)NCc3ncc(C)[nH]3)cc2)CC1,"inconclusive: 23.1 µM [activator, partial curve, poor fit]"
9,O=C(COc1ccc(Cl)cc1)OCC(=O)N1CCOCC1,"inconclusive: 18.3 µM [activator, partial curve, poor fit]"
10,CC(=O)N1CCSc2ccc(S(=O)(=O)NCCc3ccc(C)cc3)cc21,"inconclusive: 6.51 µM [inhibitor, partial curve]"
11,Cc1ccc(C(=O)OCC(=O)c2c(N)n(C)c(=O)n(C)c2=O)cc1S(=O)(=O)N1CCCCC1,"inconclusive: 23.1 µM [inhibitor, single point]"
12,COc1ccc(C(=O)C2CCCN(Cc3cccn3-c3ccccn3)C2)c(OC)c1 (centres undefined),"inconclusive: 16.4 µM [inhibitor, partial curve, poor fit]"
13,O=C1c2ccccc2S(=O)(=O)c2cc(C(=O)N(c3ccccn3)c3ccccn3)ccc21,inactive
14,O=C(N/N=C/C=C/c1ccccc1)c1ccccn1,"inconclusive: 18.3 µM [activator, partial curve]"
15,COc1ccc(CCn2nnnc2C(C(C)C)N2CCN(c3ncccn3)CC2)cc1OC (centres undefined),"inconclusive: 20.6 µM [inhibitor, single point]"
16,COc1ccc(CN(C2CCCC2)S(=O)(=O)c2ccc(-n3cnnn3)cc2)cc1OC,"inconclusive: 23.1 µM [inhibitor, single point]"
17,CCN(C(=O)COC(=O)c1c(NC(C)=O)sc(C)c1C)C1CCS(=O)(=O)C1 (centres undefined),inactive
18,COC(=O)[C@]1(Cc2ccccc2)N[C@H](CN(C)S(=O)(=O)c2ccc(C)cc2)[C@@H]2C(=O)N(Cc3ccccc3)C(=O)[C@@H]21,"inconclusive: 9.2 µM [inhibitor, partial curve, poor fit]"
19,COc1cc2nc(CN3CCN(C(c4ccccc4)c4ccccc4)CC3)[nH]c(=O)c2cc1OC,inactive
20,COc1ccc(NC(=O)/C(=C/c2ccc3c(c2)OCO3)NC(C)=O)cc1,inactive
21,O=C(Nc1cccnc1Cl)c1ccc(S(=O)(=O)N2CCCCCC2)cc1,"inconclusive: 29.1 µM [inhibitor, single point]"
22,Cc1ccc(NC(=O)NCCCN2CCCC2=O)cc1C,"inconclusive: 20.6 µM [activator, partial curve]"
23,O=C(N/N=C\c1cn(-c2ccccc2)nc1-c1ccccc1)c1ccc2c(c1)OCO2,"inconclusive: 29.1 µM [inhibitor, single point]"

# In another format: results already given.
row	Structure (SMILES)	Potency
1	CC(=O)c1nnn(-c2ccc([N+](=O)[O-])cc2)c1C	inactive
2	CC(=O)Nc1ccc(NC(=O)c2ccccc2CCc2ccccc2)cc1	inactive
